Publication PMC12730105, “The Interaction Between PGD2 and G6PD6 Is Involved in Aromatic Amino Acid Synthesis” (Biology, 2025)
These are yes or no findings as the source states them, for the method shown. Binding seen in cells or lysates may run through a third protein. Binding can be weak; no strength is given. Sequences can lack the tags named with a protein.

Legend:
[1] = target: T1, glucose-6-phosphate dehydrogenase 6 (G6PD6), full length, split-YFP fusion G6PD6-CYFP (Arabidopsis thaliana) (UniProt Q9FJI5); assay: split reporter; BiFC with split YFP (pCNHP-CYFP and pCNHP-NYFP fusions), transient expression in N. benthamiana leaves by Agrobacterium infiltration, confocal microscopy 3 days after infiltration
T1 sequence: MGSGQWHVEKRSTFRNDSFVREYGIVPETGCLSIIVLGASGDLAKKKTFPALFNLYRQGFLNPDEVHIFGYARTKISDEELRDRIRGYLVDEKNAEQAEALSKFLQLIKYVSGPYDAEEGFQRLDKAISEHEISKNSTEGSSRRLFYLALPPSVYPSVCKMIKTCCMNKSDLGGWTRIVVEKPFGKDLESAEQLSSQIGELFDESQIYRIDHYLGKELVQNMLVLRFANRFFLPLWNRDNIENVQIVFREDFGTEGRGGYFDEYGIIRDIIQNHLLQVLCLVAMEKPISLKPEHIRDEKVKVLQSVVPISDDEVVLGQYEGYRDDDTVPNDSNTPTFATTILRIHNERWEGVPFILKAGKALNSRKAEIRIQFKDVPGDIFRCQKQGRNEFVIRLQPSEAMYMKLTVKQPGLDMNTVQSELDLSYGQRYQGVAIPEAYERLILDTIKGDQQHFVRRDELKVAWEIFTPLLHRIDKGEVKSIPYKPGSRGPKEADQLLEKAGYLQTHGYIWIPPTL

[2] = target: T2, 6-phosphogluconate dehydrogenase 2 (PGD2), full length, split-YFP fusion PGD2-NYFP (Arabidopsis thaliana) (UniProt Q9FWA3); assay: as above
T2 sequence: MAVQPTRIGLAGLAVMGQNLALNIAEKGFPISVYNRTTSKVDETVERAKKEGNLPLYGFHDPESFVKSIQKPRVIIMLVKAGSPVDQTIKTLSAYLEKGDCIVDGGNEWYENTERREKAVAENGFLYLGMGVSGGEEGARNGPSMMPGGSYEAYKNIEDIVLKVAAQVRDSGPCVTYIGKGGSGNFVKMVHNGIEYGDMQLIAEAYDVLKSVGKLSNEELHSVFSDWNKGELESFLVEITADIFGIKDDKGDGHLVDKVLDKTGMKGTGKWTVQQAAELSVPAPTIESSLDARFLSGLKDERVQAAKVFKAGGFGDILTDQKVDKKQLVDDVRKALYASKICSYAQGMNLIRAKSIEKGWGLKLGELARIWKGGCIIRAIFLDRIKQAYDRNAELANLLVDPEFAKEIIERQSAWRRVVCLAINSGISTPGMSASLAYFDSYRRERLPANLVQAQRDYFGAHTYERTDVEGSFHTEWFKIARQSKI

C-terminal region of PGD2 (domain mapping, BiFC fusion) (Arabidopsis thaliana) (domain or fragment)
binding [1]: binds
binding [2]: binds
